Some of the results follow.
What was measured:
Assay in all cases: glycan array binding signal (z-score within array); higher = stronger binding
Conditions in all cases: glycan notation: IUPAC condensed, linker removed
[1] = molecular target: Man(a1-2)Man(a1-3)[Man(a1-2)Man(a1-6)]Man
In short: (§1)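 The binding signal is a Z-score computed within each array and averaged over linkers. Arrays of the same protein sequence at different concentrations or buffers were also averaged together. Data originate from 3228 arrays in the Consortium for Functional Glycomics database, kept only where the protein sequence was available.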

[2] = molecular target: Man(a1-2)Man(a1-3)[Man(a1-2)Man(a1-6)]Man(a1-6)[Man(a1-2)Man(a1-2)Man(a1-3)]Man
In short: as §1

[3] = molecular target: Man(a1-2)Man(a1-3)[Man(a1-2)Man(a1-6)]Man(a1-6)[Man(a1-2)Man(a1-2)Man(a1-3)]Man(b1-4)GlcNAc(b1-4)GlcNAc
In short: as §1

[4] = molecular target: Man(a1-2)Man(a1-3)[Man(a1-6)]Man(a1-6)[Man(a1-2)Man(a1-3)]Man(b1-4)GlcNAc(b1-4)GlcNAc
In short: as §1

[5] = molecular target: Man(a1-2)Man(a1-6)[Man(a1-3)]Man(a1-6)[Man(a1-2)Man(a1-2)Man(a1-3)]Man
In short: as §1

[6] = molecular target: Man(a1-2)Man(a1-6)[Man(a1-3)]Man(a1-6)[Man(a1-2)Man(a1-2)Man(a1-3)]Man(b1-4)GlcNAc(b1-4)GlcNAc
In short: as §1

Man(a1-3)[Man(a1-6)]Man = molecular target: Man(a1-3)[Man(a1-6)]Man
In short: as §1

[7] = molecular target: Man(a1-3)[Man(a1-6)]Man(a1-6)[Man(a1-2)Man(a1-3)]Man(b1-4)GlcNAc(b1-4)GlcNAc
In short: as §1

[8] = molecular target: Man(a1-3)[Man(a1-6)]Man(a1-6)[Man(a1-3)]Man
In short: as §1

[9] = molecular target: Man(a1-3)[Man(a1-6)]Man(a1-6)[Man(a1-3)]Man(b1-4)GlcNAc(b1-4)GlcNAc
In short: as §1

[10] = molecular target: Man(a1-3)[Man(a1-6)]Man(b1-4)GlcNAc(b1-4)GlcNAc
In short: as §1

[11] = molecular target: Man(a1-3)[Man(a1-6)]Man(b1-4)GlcNAc(b1-4)[Fuc(a1-6)]GlcNAc
In short: as §1

Man(a1-6)Man = molecular target: Man(a1-6)Man
In short: as §1

Man(b1-4)GlcNAc = molecular target: Man(b1-4)GlcNAc
In short: as §1

MurNAc(b1-4)GlcNAc = molecular target: MurNAc(b1-4)GlcNAc
In short: as §1

Neu5Ac(a2-3)Gal = molecular target: Neu5Ac(a2-3)Gal
In short: as §1

[12] = molecular target: Neu5Ac(a2-3)Gal(b1-3)GalNAc
In short: as §1

[13] = molecular target: Neu5Ac(a2-3)Gal(b1-3)GalNAc(b1-3)Gal(a1-4)Gal(b1-4)Glc
In short: as §1

[14] = molecular target: Neu5Ac(a2-3)Gal(b1-3)GalNAc(b1-4)Gal(b1-4)Glc
In short: as §1

[15] = molecular target: Neu5Ac(a2-3)Gal(b1-3)GalNAc(b1-4)[Neu5Ac(a2-3)]Gal(b1-4)Glc
In short: as §1

[16] = molecular target: Neu5Ac(a2-3)Gal(b1-3)GalNAc(b1-4)[Neu5Ac(a2-8)Neu5Ac(a2-3)]Gal(b1-4)Glc
In short: as §1

[17] = molecular target: Neu5Ac(a2-3)Gal(b1-3)GalNAc6S
In short: as §1

[18] = molecular target: Neu5Ac(a2-3)Gal(b1-3)GlcNAc
In short: as §1

[19] = molecular target: Neu5Ac(a2-3)Gal(b1-3)GlcNAc(b1-2)Man
In short: as §1

[20] = molecular target: Neu5Ac(a2-3)Gal(b1-3)GlcNAc(b1-2)Man(a1-3)[GlcNAc(b1-4)][Neu5Ac(a2-3)Gal(b1-3)GlcNAc(b1-2)Man(a1-6)]Man(b1-4)GlcNAc(b1-4)GlcNAc
In short: as §1

[21] = molecular target: Neu5Ac(a2-3)Gal(b1-3)GlcNAc(b1-2)Man(a1-3)[Neu5Ac(a2-3)Gal(b1-3)GlcNAc(b1-2)Man(a1-6)]Man(b1-4)GlcNAc(b1-4)GlcNAc
In short: as §1

[22] = molecular target: Neu5Ac(a2-3)Gal(b1-3)GlcNAc(b1-2)[Neu5Ac(a2-3)Gal(b1-3)GlcNAc(b1-4)]Man(a1-6)[Neu5Ac(a2-3)Gal(b1-3)GlcNAc(b1-2)Man(a1-3)]Man(b1-4)GlcNAc(b1-4)GlcNAc
In short: as §1

[23] = molecular target: Neu5Ac(a2-3)Gal(b1-3)GlcNAc(b1-3)Gal(b1-3)GlcNAc
In short: as §1

[24] = molecular target: Neu5Ac(a2-3)Gal(b1-3)GlcNAc(b1-3)Gal(b1-4)GlcNAc
In short: as §1

[25] = molecular target: Neu5Ac(a2-3)Gal(b1-3)GlcNAc(b1-3)GalNAc
In short: as §1

[26] = molecular target: Neu5Ac(a2-3)Gal(b1-3)GlcNAc(b1-4)Gal(b1-4)Glc
In short: as §1

[27] = molecular target: Neu5Ac(a2-3)Gal(b1-3)GlcNAc(b1-6)GalNAc
In short: as §1

[28] = molecular target: Neu5Ac(a2-3)Gal(b1-3)GlcNAc6S
In short: as §1

[29] = molecular target: Neu5Ac(a2-3)Gal(b1-3)[Fuc(a1-4)]GlcNAc
In short: as §1

[30] = molecular target: Neu5Ac(a2-3)Gal(b1-3)[Fuc(a1-4)]GlcNAc(b1-3)Gal(b1-3)[Fuc(a1-4)]GlcNAc
In short: as §1

[31] = molecular target: Neu5Ac(a2-3)Gal(b1-3)[Fuc(a1-4)]GlcNAc(b1-3)Gal(b1-4)[Fuc(a1-3)]GlcNAc
In short: as §1

[32] = molecular target: Neu5Ac(a2-3)Gal(b1-3)[GlcNAc(b1-6)]GalNAc
In short: as §1

[33] = molecular target: Neu5Ac(a2-3)Gal(b1-3)[Neu5Ac(a2-6)]GalNAc
In short: as §1

[34] = molecular target: Neu5Ac(a2-3)Gal(b1-3)[Neu5Ac(a2-6)]GlcNAc(b1-3)[Fuc(a1-3)[Gal(b1-4)]GlcNAc(b1-6)]Gal(b1-4)Glc
In short: as §1

[35] = molecular target: Neu5Ac(a2-3)Gal(b1-3)]Neu5Ac(a2-3)Gal(b1-4)]GlcNAc
In short: as §1

Neu5Ac(a2-3)Gal(b1-4)Glc = molecular target: Neu5Ac(a2-3)Gal(b1-4)Glc
In short: as §1

[36] = molecular target: Neu5Ac(a2-3)Gal(b1-4)GlcNAc
In short: as §1

[37] = molecular target: Neu5Ac(a2-3)Gal(b1-4)GlcNAc(b1-2)Man
In short: as §1

[38] = molecular target: Neu5Ac(a2-3)Gal(b1-4)GlcNAc(b1-2)Man(a1-3)[GlcNAc(b1-4)][Neu5Ac(a2-3)Gal(b1-4)GlcNAc(b1-2)Man(a1-6)]Man(b1-4)GlcNAc(b1-4)GlcNAc
In short: as §1

[39] = molecular target: Neu5Ac(a2-3)Gal(b1-4)GlcNAc(b1-2)Man(a1-3)[Neu5Ac(a2-3)Gal(b1-4)GlcNAc(b1-2)Man(a1-6)]Man(b1-4)GlcNAc(b1-4)GlcNAc
In short: as §1

B1: BIp1-His (Cryptococcus neoformans) (protein)
chain: MFTKIFVALFAATAVLSAPVESAEKRITHTGRATFYSPSVGIGACGWQNTDEELVVALNAPQYALNADHNCGQSVRITNEQNGNQEIAKVVDLCPGCNDGDLDMSPALFGALNNNDFDQGVFPISWNFLPRDDTSSSN
glycan array binding signal (z-score) [1]: -1.59
glycan array binding signal (z-score) [2]: 0.28
glycan array binding signal (z-score) [3]: -0.399
glycan array binding signal (z-score) [4]: -0.353
glycan array binding signal (z-score) [5]: -0.355
glycan array binding signal (z-score) [6]: -0.711
glycan array binding signal (z-score) (Man(a1-3)[Man(a1-6)]Man): 0.728
glycan array binding signal (z-score) [7]: 1.31
glycan array binding signal (z-score) [8]: -0.668
glycan array binding signal (z-score) [9]: 0.701
glycan array binding signal (z-score) [10]: -0.137
glycan array binding signal (z-score) [11]: -0.012
glycan array binding signal (z-score) (Man(a1-6)Man): -0.201
glycan array binding signal (z-score) (Man(b1-4)GlcNAc): 0.2
glycan array binding signal (z-score) (MurNAc(b1-4)GlcNAc): 0.736
glycan array binding signal (z-score) (Neu5Ac(a2-3)Gal): -1.27
glycan array binding signal (z-score) [12]: -0.15
glycan array binding signal (z-score) [13]: -0.301
glycan array binding signal (z-score) [14]: -0.565
glycan array binding signal (z-score) [15]: 0.501
glycan array binding signal (z-score) [16]: -0.685
glycan array binding signal (z-score) [17]: -0.387
glycan array binding signal (z-score) [18]: -0.217
glycan array binding signal (z-score) [19]: -0.34
glycan array binding signal (z-score) [20]: -0.489
glycan array binding signal (z-score) [21]: -0.457
glycan array binding signal (z-score) [22]: 0.677
glycan array binding signal (z-score) [23]: -0.456
glycan array binding signal (z-score) [24]: 0.65
glycan array binding signal (z-score) [25]: -0.932
glycan array binding signal (z-score) [26]: -1.13
glycan array binding signal (z-score) [27]: 1.86
glycan array binding signal (z-score) [28]: 0.133
glycan array binding signal (z-score) [29]: 0.485
glycan array binding signal (z-score) [30]: -0.526
glycan array binding signal (z-score) [31]: -0.185
glycan array binding signal (z-score) [32]: -0.792
glycan array binding signal (z-score) [33]: -0.138
glycan array binding signal (z-score) [34]: -0.018
glycan array binding signal (z-score) [35]: -0.538
glycan array binding signal (z-score) (Neu5Ac(a2-3)Gal(b1-4)Glc): 0.687
glycan array binding signal (z-score) [36]: 0.784
glycan array binding signal (z-score) [37]: -0.517
glycan array binding signal (z-score) [38]: -0.31
glycan array binding signal (z-score) [39]: 0.529
